At least one peptide structure holds a part that was inferred or is arguable (an end, a ring closure or a residue).
System: mice fed Gubra amylin NASH (GAN) diet
Experiment: Biological effects in GAN diet NASH mice
Type: in vivo
Details: after two weeks, 10 mg/kg group
Method: NASH was induced in mice by feeding mice a Gubra amylin NASH (GAN) diet as described in Boland et al. World J Gastroenterol. 2019, 25(33): 4904-4920. One week prior to administration of a first dose of compounds, the mice were weighed and randomized, and their food intake was measured. Mice were randomly assigned to dosing groups, with twelve mice per group. […] Compound dose titration (nmol/kg): 0.6 (day 0), 1.2 (day 1), 2.4 (day 2), 4.8 (day 3), 4.8 (day 4), 12 (day 5), 30.0 (from day 6).
After two weeks, animals were sacrificed. Plasma enzymes (P-ALT (alanine aminotransferase) and P-AST (aspartate aminotransferase)), total plasma triglycerides, and total plasma cholesterol were measured, and terminal necropsy of each liver was carried out, determining relative liver weight as a percentage of body weight, assaying total liver biochemistry including total liver triglycerides, plasma insulin and total liver cholesterol, as well as histological evaluation of Galectin-3, and alpha-smooth muscle actin.

## CC[C@H](C)[C@H](NC(=O)[C@H](CC(C)C)NC(=O)[C@H](Cc1c[nH]c2ccccc12)NC(=O)[C@H](CCC(N)=O)NC(=O)[C@@H](NC(=O)[C@H](Cc1ccccc1)NC(=O)[C@H](C)NC(=O)[C@H](CCCCNC(=O)COCCOCCNC(=O)COCCOCCNC(=O)CC[C@H](NC(=O)CCCCCCCCCCCCCCCCCCP(=O)(O)O)P(=O)(O)O)NC(=O)[C@H](CCC(N)=O)NC(=O)[C@H](C)NC(=O)[C@@H](NC(=O)[C@H](CCCCN)NC(=O)[C@H](CC(=O)O)NC(=O)[C@H](CC(C)C)NC(=O)C(C)(C)NC(=O)[C@@H](NC(=O)[C@H](CO)NC(=O)[C@H](Cc1ccc(O)cc1)NC(=O)[C@H](CC(=O)O)NC(=O)[C@H](CO)NC(=O)[C@@H](NC(=O)[C@H](Cc1ccccc1)NC(=O)[C@@H](NC(=O)CNC(=O)[C@H](CCC(=O)O)NC(=O)C(C)(C)NC(=O)[C@@H](N)Cc1ccc(O)cc1)[C@@H](C)O)[C@@H](C)O)[C@@H](C)CC)[C@@H](C)CC)C(C)C)C(=O)N[C@@H](C)C(=O)NCC(=O)NCC(=O)N1CCC[C@H]1C(=O)N[C@@H](CO)C(=O)N[C@@H](CO)C(=O)NCC(=O)N[C@@H](C)C(=O)N1CCC[C@H]1C(=O)N1CCC[C@H]1C(=O)N1CCC[C@H]1C(=O)N[C@@H](CO)C(N)=O [Compound 12]
Liver Galectin-3, histological quantitative assessment
  Gal-3 Total: 113 ± 10 mg
Liver triglycerides, GAN diet NASH mice
  TG Total: 63 ± 5 mg per/ liver
Liver α-smooth muscle actin, histological quantitative assessment
  α-SMA Total: 84 ± 8 mg

Source: patent US11744873B2, “Compositions and methods for the treatment of metabolic and liver disorders” (Viking Therapeutics, Inc., priority 2021, dated 2023)
